Assay results from PubChem BioAssay AID2685 (National Center for Advancing Translational Sciences (NCATS), 2010).
In all, about 320,000 compounds went through this assay and about 2,100 (0.66%) were called active. The inconclusive results got no clear call from the source; some entries with a clear call stand among them for comparison. Calls follow the shape of the dose curve; as a rule, active = well fitted inhibition curve with a large enough effect in the signal ratio, with a control signal flat (not every such curve was filed as active); inconclusive = small, poorly fitted or top-dose-only effect, or effect the other way, or a change in a side signal; inactive = flat fitted curve, though single readings scatter; the % refers to the signal ratio. A potency beside an inconclusive call is a rough fit, not a confirmed value.

assay: qHTS Assay for Lipid Storage Modulators in Drosophila S3 Cells; conditions: BODIPY lipid droplet fluorescence, 18-24 h, cells fed with added oleic acid; lipid storage change, negative = inhibition: at 46.1 µM (top of the series) unless noted
Procedure, shortened: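 Drosophila S3 cells got compounds at several concentrations plus oleic acid (400 uM solution). Laser-scanning cytometry with 488 nm excitation read lipid droplets at 500-530 nm and cells at 575-640 nm. Percent activity was relative to 20 uM Triacsin C.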
% is scaled to controls: 0 for no effect and ±100 for the full control effect; potency is read from the fitted curve at half-maximal effect.

SMILES	lipid storage change, negative = inhibition	Potency	outcome
N#CCC(=O)NNC(=S)NC(=O)C(c1ccccc1)c1ccccc1	inconclusive: -20%		
Cc1nc(-c2ccc(S(=O)(=O)N3CCN(c4ccccc4)CC3)cc2)co1	inconclusive: 37.9%		
Cc1onc(-c2ccccc2Cl)c1C(=O)N1CCCCC1C(=O)O (configuration not stated)	inconclusive: -6.68%		
O=C(COC(=O)c1ccc(NS(=O)(=O)c2ccc3c(c2)OCCO3)cc1)NC1CCS(=O)(=O)C1 (configuration not stated)	inconclusive: -27.8% [at 9.22 µM]		
COc1ccccc1S(=O)(=O)Nc1cccc(-c2nnc3n2CCCCC3)c1	inconclusive: 25.3%		
Cc1ccccc1NC(=S)N1CCOCC1	inconclusive: -1.85%		
Cc1ccc2c(c1)c1n[nH]c(=S)nc1n2CCc1ccccc1		inconclusive: 29.1 µM [activator, single point]	
COc1ccc2c3n(nc2c1)CCN=C3c1ccc(Cl)cc1	inactive: 18.2%		
COc1ccc(C(=O)N2CC=C(c3ccccc3)CC2)cc1S(=O)(=O)N1CCOCC1	inconclusive: 63.2% [activator]		
CC(c1ccco1)N(C(=O)c1cccc(Br)c1)c1ccccn1 (configuration not stated)	inconclusive: -20.5%		
O=C(Nc1ccc(-c2nnc(-c3ccccc3)o2)cc1)C(F)(F)F		inconclusive: 0.461 µM [falling, full curve, poor fit]	
COc1ccccc1-c1noc(CCC(=O)Nc2cccc(C(F)(F)F)c2)n1	inconclusive: -18.9%		
COc1ccc2c(c1O)Cc1ccccc1C2=O	inconclusive: -6.23%		
COc1ccc(OCC(O)CNCc2ccco2)cc1 (configuration not stated)		inconclusive: 0.082 µM [falling, full curve, poor fit]	
CCN(C(=O)CN1C(=O)/C(=C/c2ccccc2)SC1=S)C1CCS(=O)(=O)C1 (configuration not stated)			inactive [at 46.1 µM]
CCOC(=O)c1c(CS(=O)(=O)c2ccccc2)n(C)c2cc(Br)c(O)c(CN(C)C)c12	inconclusive: -15.9%		
COCCNC(=O)[C@H](C)[C@H]1C[C@]1(C)[C@H](NC(=O)OCc1ccccc1)c1ccccc1	inconclusive: 14.8%		
COc1ccc(CN2C(=O)c3ccccc3C2=O)cc1	inconclusive: 19.1%		
CCOC(=O)c1c(C)[nH]c(C(=O)COC(=O)c2ccc(N3CCCC3=O)cc2)c1C		inconclusive: 32.6 µM [activator, single point]	
Cc1cccc(C(=O)NNC(=O)CCn2nnc3ccccc32)c1	inconclusive: -2.07%		
Cn1c(NC(=S)Nc2ccccc2)nc2ccccc21		inconclusive: 2.59 µM [falling, full curve]	
CCC1=NN2C(=N)/C(=C/c3ccc(OS(=O)(=O)c4ccccc4)cc3)C(=O)N=C2S1		inconclusive: 29.1 µM [activator, single point]	

An excerpt from above in order of number of heavy atoms, largest number first:
SMILES	lipid storage change, negative = inhibition	Potency	outcome
COc1ccc(C(=O)N2CC=C(c3ccccc3)CC2)cc1S(=O)(=O)N1CCOCC1	inconclusive: 63.2% [activator]		
COc1ccccc1-c1noc(CCC(=O)Nc2cccc(C(F)(F)F)c2)n1	inconclusive: -18.9%		
COc1ccc2c3n(nc2c1)CCN=C3c1ccc(Cl)cc1	inactive: 18.2%		
